# PubChem BioAssay AID1224828 – NIAID – 2016
# Purpose: 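Find genes required for NF-kappaB p65 moving into the nucleus after LPS in mouse macrophages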 (primary screen)
# System: mouse RAW264.7 G9 macrophage reporter cells (GFP-p65, Tnf promoter-mCherry)
# Reagent: siRNA pool against mouse genes, 100 nM
# Time to read-out: 2 days siRNA transfection, then 40 min LPS before fixation
# Conditions: LPS (Salmonella minnesota R595) at 10 ng/ml
# Measured: 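Imaged p65 nuclear translocation ratio, normalised to the plate median, converted to robust z-scores and averaged across two replicates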
# Direction: p65 translocation robust z-score: higher = more nuclear NF-kappaB p65 after LPS than the plate median; nuclear/cytoplasmic p65 ratio: higher = more nuclear NF-kappaB p65
# Call rule: 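Called active when z exceeds 3.3 or falls under -1.56 (median of Tlr4 controls), giving activity score of at least 50; no calls for control wells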
# Calls: active = hit (p65 shift raised or lowered); inactive = no clear change
# In all, the deposit lists about 17,000 reagents; below is a part drawn at random. Over the whole deposit, 762 (4.5%) are marked active. 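Active calls include both raised and lowered p65 entry, mostly lowered; wells with fewer than 50 cells lack a z-score.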 The raw values are shown without normalisation.
target,p65 translocation robust z-score,"nuclear/cytoplasmic p65 ratio, rep 1","nuclear/cytoplasmic p65 ratio, rep 2",low cell count flag,Outcome
Dcbld2,-0.37,1.54,1.47,enough cells to score,inactive
Vangl2,,1.53,1.25,fewer than 50 cells per well; well left out of scoring,inactive
Neurl4,0.16,1.61,1.66,enough cells to score,inactive
Flnb,-0.36,1.33,1.38,enough cells to score,inactive
Cox4i1,1.12,1.63,2.09,enough cells to score,inactive
Dnajb6,1.9,1.42,1.6,enough cells to score,inactive
Chst1,0.07,1.66,1.73,enough cells to score,inactive
Sp3,0.1,1.52,1.61,enough cells to score,inactive

The list goes on (3 carried over from the part before).
target,p65 translocation robust z-score,"nuclear/cytoplasmic p65 ratio, rep 1","nuclear/cytoplasmic p65 ratio, rep 2",low cell count flag,Outcome
Dnajb6,1.9,1.42,1.6,enough cells to score,inactive
Chst1,0.07,1.66,1.73,enough cells to score,inactive
Sp3,0.1,1.52,1.61,enough cells to score,inactive
Dpt,,1.89,1.47,fewer than 50 cells per well; well left out of scoring,inactive
Tmem198b,0.31,1.53,1.54,enough cells to score,inactive
D430041D05Rik,0.09,1.44,1.41,enough cells to score,inactive
Exoc2,1.71,1.63,1.45,enough cells to score,inactive
Bbc3,-1.07,1.41,1.49,enough cells to score,inactive
Adra2c,0.49,1.51,1.72,enough cells to score,inactive
Bmpr1b,-0.92,1.59,1.23,enough cells to score,inactive
Or5k17,-1.61,1.36,1.21,enough cells to score,active
Tsc22d3,-0.9,1.36,1.23,enough cells to score,inactive
Tprn,1.54,1.68,1.7,enough cells to score,inactive
Cryga,0.07,1.47,1.4,enough cells to score,inactive
Vwa3b,-1.18,1.22,1.36,enough cells to score,inactive
Rad52,-0.22,1.49,1.48,enough cells to score,inactive
Lpar2,-0.01,1.5,1.58,enough cells to score,inactive
Kcnk7,0.48,1.62,1.5,enough cells to score,inactive
Fam220a,,1.13,1.21,fewer than 50 cells per well; well left out of scoring,inactive
